## Screening data, single-dose tests

The chains behind the UniProt entries cited, without tags or fusion partners. Residues count along the entry.
UniProt P9WFT3, whole entry: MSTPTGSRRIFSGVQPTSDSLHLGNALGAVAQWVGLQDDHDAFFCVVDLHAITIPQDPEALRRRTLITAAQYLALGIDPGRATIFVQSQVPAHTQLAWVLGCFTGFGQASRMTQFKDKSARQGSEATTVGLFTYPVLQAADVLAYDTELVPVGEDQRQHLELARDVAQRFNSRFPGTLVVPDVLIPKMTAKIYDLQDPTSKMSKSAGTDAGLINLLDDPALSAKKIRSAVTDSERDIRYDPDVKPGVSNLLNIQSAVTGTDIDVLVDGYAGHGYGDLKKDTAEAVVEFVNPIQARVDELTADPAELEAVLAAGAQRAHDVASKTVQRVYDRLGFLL
UniProt Q4DA54, 1-478: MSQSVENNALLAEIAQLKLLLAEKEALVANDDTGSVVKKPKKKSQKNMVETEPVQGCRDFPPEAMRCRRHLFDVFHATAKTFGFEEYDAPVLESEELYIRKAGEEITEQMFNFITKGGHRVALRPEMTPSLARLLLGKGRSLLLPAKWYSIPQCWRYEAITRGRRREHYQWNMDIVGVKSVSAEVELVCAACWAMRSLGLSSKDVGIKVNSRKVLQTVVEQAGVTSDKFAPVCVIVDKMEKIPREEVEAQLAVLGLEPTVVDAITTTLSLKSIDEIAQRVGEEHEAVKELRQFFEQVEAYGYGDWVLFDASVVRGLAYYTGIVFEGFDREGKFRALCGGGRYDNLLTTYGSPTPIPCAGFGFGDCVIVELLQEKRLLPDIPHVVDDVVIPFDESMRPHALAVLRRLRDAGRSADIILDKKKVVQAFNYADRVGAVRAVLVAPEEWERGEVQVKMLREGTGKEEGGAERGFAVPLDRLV

A: 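Enzyme assay of tryptophanyl-tRNA synthetase; the read-out is not stated. Target: Tryptophan-tRNA ligase, Mycobacterium tuberculosis (UniProt P9WFT3). Concentration: 10 µM. Higher most likely means stronger inhibition; the record gives no direction and few retests gave an IC50. Size under these conditions: about 65,000 compounds, about 64 of them at 50% or above in at least one test.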
B: 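Cell assay of Leishmania donovani living inside macrophages; the read-out is not stated. Concentration: 30 µM. Higher reads as stronger inhibition (inferred: compounds with an IC50 in retests scored well above the rest). Size under these conditions: about 69,000 compounds, about 1,000 of them at 50% or above in at least one test.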
C: 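Histidine-tRNA ligase, Trypanosoma cruzi CL Brener (UniProt Q4DA54). Enzyme assay of histidyl-tRNA synthetase; the read-out is not stated. Tested at 30 µM. Direction is inferred from retests: higher values go with stronger inhibition. Of about 69,000 compounds tested this way, about 31 (0.045%) reached 50% or more in at least one test.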

Results are given as percent effect. The record does not define 0% and 100%; most values in the screen are far below 50% and negative numbers occur (in some assays of this library far below -100). The compounds are a random part of those screened. Two or more numbers in one place are separate tests of the same structure; such repeats can differ widely. A dash means the value is not listed here; it may have been measured.

| compound | A | B | C |
|---|---|---|---|
| `O=C(c1cscn1)N1CC[C@@H]2[C@@H]1CCN2C1CCOC1` (stereo partly drawn) | - | - | 7.778% |
| `CN(C)CCN1CC2(CCC1=O)CCN(C(=O)c1ccn(C)n1)CC2` | -9.107% | 8.113% | 2.89% |
| `O=C1CCCN1CCc1noc(-c2ccsc2)n1` | 1.125% | 26.46% | 3.191% |
| `CCn1c(NCc2ccccc2)nc2c(C)nn(C)c2c1=O` | 5.052% | 37.24% | 3.478% |
| `CC(C)N(C)Cc1cncc2c1CCN(C(=O)c1ccccc1F)C2.Cl.Cl` | - | 5.43% & 3.024% | - |
| `COc1ccc(CCc2nnc(NC(=O)C3CC34CCC4)s2)cc1OC` (stereo not drawn) | -2.902% | 27.83% | 8.333% |
| `Cn1cc2c(n1)C(COCC1CC1)CN(Cc1ccsc1)C2` (stereo not drawn) | -7.654% | -18.37% | 5.911% |
| `c1ccc(-c2nc(CN3CCOC(Cn4cccn4)C3)no2)cc1` (stereo not drawn) | -0.9291% | 6.63% | 5.66% |
| `CC(C)(C)CN1CCCC2(CCN(C(=O)c3ccc(O)nc3)C2)C1` (stereo not drawn) | -7.273% | 34.56% | 5.806% |
| `c1coc(CN2CCC3(CC2)CC(N2CCCC2)CO3)c1` (stereo not drawn) | 3.961% | -4.548% | -4.854% |
| `Cc1nc2n(n1)CC(NCc1nc(-c3cccs3)no1)CC2` (stereo not drawn) | 2.119% | 13.76% | 7.006% |
| `Cc1cc(NC2CCc3nc(C(C)C)nn3C2)n2ncnc2n1` (stereo not drawn) | 6.812% | -19.33% | 0.6135% |
| `O=C(Nc1nncs1)N1CCCN(C2CCCC2)CC1` | -1.037% | -44.18% | -1.205% |
| `Cc1cccnc1CSCCCNS(C)(=O)=O` | -0.9082% | 0.2106% | 7.006% |
| `Cc1cc(CN2CCN(C(=O)NCc3csc(C)n3)CC2)no1` | 31.93% | -44.15% | 1.153% |
| `Cc1ccc(S(=O)(=O)NCCc2cccnc2)cc1C` | 2.969% | 15.17% | 6.667% |
| `Cc1ccc(S(=O)(=O)N(CCO)C2CC2)cc1N(C)C` | 5.624% | -23.52% | -1.657% |
| `O=C(NCCc1ccccc1)c1cccc(S(=O)(=O)NC2CCOC2)c1` (stereo not drawn) | 0.08376% | 8.811% | 4% |
| `Cc1ccc(C(=O)N2CCC3(CCN(C(=O)c4cccnc4)C3)CC2)o1.O=C(O)C(F)(F)F` | - | 15.54% | - |
| `CN(Cc1cc(-c2ccccc2)no1)C(=O)CNS(C)(=O)=O` | 10.65% | -17.62% | 1.948% |
| `[H][C@@]12COC[C@]1(c1nnc(C(C)C)o1)CN(C(=O)c1cc(C)no1)C2` | - | 8.544% | - |
| `COc1ccc([C@@H]2CN(Cc3cccnc3N)C[C@H]2NC(C)=O)cc1` | -2.976% | 31.06% | 7.463% |
| `O=C(O)C(F)(F)F.c1cnc(N2CC3(CCN(C4CCOCC4)CC3)c3ccccc32)nc1` | - | 17.09% | - |
| `CCc1noc(CCCC(=O)Nc2cc(C(F)(F)F)c[nH]c2=O)n1` | 0.3549% | -12.53% | 13.79% |
| `Cc1ccc(-c2nc(CN3CCn4c(nnc4C4CC4)C3)no2)cc1` | 2.437% | -15.85% | 5.051% |
| `O=C1OCC(CO)N1Cc1cccc(Cl)c1F` (stereo not drawn) | 2.022% | -10.73% | 1.98% |
| `CCn1cc(C(=O)Nc2ccccc2C(=O)OC)cn1` | -2.529% | -14.53% | 8.247% |
| `CC(=O)NCCNC(=O)N(C)Cc1ccc2c(c1)OCCO2` | 3.207% | 2.758% | 1.916% |
| `COCCN(Cc1ccc(F)cc1Cl)C(=O)c1ccc(=O)[nH]n1` | -1.706% | 13.76% | 0.813% |
| `CC(C)COC(C)C(=O)NCc1cc(F)cc(F)c1` (stereo not drawn) | -0.07819% | -16.17% | 3.396% |
| `CC(C)CN1CC(C(=O)NCCOc2ccc3c(c2)OCO3)CC1=O` (stereo not drawn) | -4.475% | 27.7% | 1.156% |
| `CCN(CC)C(=O)c1cc(C2CCCN2C)ccn1.O=CO` (stereo not drawn) | - | 0.3047% | - |
| `[H][C@]12CCC[C@@]1(COCC1CCOCC1)CN(Cc1nccs1)C2` | - | 7.465% & 13.75% | - |
| `CCCS(=O)(=O)N1Cc2nccn2CC(CN2CCCC2)C1.O=C(O)C(F)(F)F` (stereo not drawn) | - | 22% | - |
| `COC(=O)c1ccc(N2CCN(CCN3CCOCC3)C(C)C2)cc1` (stereo not drawn) | 2.047% | 15.46% | -13.64% |
| `CCn1cc(CN2CCCn3nc(CNC(=O)N(C)C)cc3C2)cn1` | 3.406% | -24.42% | -4.523% |
| `CC(C)Cc1cc(C(=O)N2CCC(C(=O)N3CCOCC3)CC2)on1` | 5.154% | 1.641% | 13.69% |
| `Cc1ccccc1[C@@H]1CN(C(=O)c2ccc3[nH]nnc3c2)C[C@H]1C(=O)O` | 1.891% | -21.06% | 2.479% |
| `Cc1cc(NC(=O)NCc2cccnc2OC(C)C)n(C)n1` | 0.2924% | 6.928% | -1.88% |
| `CCn1ncc2c1C(COC)CN(c1ncc(F)cn1)C2.O=C(O)C(F)(F)F.O=C(O)C(F)(F)F` (stereo not drawn) | - | 50.28% | - |
| `CC(C)OC(=O)N1C[C@H]2CC[C@@H]1CN(Cc1cccnc1)C2` | -3.32% | - | 3.665% |
| `Cn1nc(COCC2CC2)c2c1CN(CC1CC1)CC2.O=C(O)C(F)(F)F.O=C(O)C(F)(F)F` | - | 14.91% | - |
| `CC(=O)N1CCCCC1c1nc(C)cc(-c2ccccc2C(=O)O)n1` (stereo not drawn) | - | -14.54% | 4.255% |
| `CCN1CCC(N[C@@H]2CC[C@@H]2NC(=O)Cc2csc(C)n2)CC1` | 1.817% | 25.21% | 3.59% |
| `CCCS(=O)(=O)N1CCOCC2(CCN(c3ccccn3)C2)C1.O=C(O)C(F)(F)F` (stereo not drawn) | - | -15.01% | - |
| `CC1N(CC2CC2)C(=O)COC12CCN(C(=O)c1ccncc1)CC2` (stereo not drawn) | 2.229% | 10.92% | 3.681% |
| `COc1ccc(-c2nc(CN3CCc4cnc(C)nc4C3)no2)cc1` | -2.466% | 32.11% | 17.29% |
| `CN(Cc1cnn(C)c1)C(=O)NCC1CCS(=O)(=O)C1` (stereo not drawn) | 3.819% | 20.25% | 4.018% |
| `CC1CCCCN1c1nc2c(c(=O)[nH]1)CCN(Cc1cccnc1)C2` (stereo not drawn) | 4.431% | 2.993% | 1.622% |
| `CNc1ncc(C(=O)N2CCC(c3ccccc3C(=O)O)C2)cn1` (stereo not drawn) | -3.618% | 9.231% | -4.831% |
| `CCc1ncc(S(C)(=O)=O)c(C2CCCNC2)n1` (stereo not drawn) | 2.518% | 7.56% | -1.345% |
| `Cc1cccc(CN2CC3C[C@]3(NC(=O)c3cccc(F)c3)C2)n1` (stereo partly drawn) | 1.066% | - | 3.681% |
| `Cc1ccccc1C(Nc1ncnc2c1CCNC2)c1ccccc1` (stereo not drawn) | 2.71% | 61.26% | 19.19% |
| `CC(C)(CNC(=O)c1ccco1)NC(=O)OC(C)(C)C` | 2.056% | -16.05% | 7.407% |
| `CC1CS(=O)(=O)CCN1Cc1ccccc1OCC(F)(F)F` (stereo not drawn) | -2.006% | -11.95% | 7.368% |
| `CC(NC(=O)NCCCN1CCCC1=O)c1nncn1C` (stereo not drawn) | -7.733% | 35.36% | 1.754% |
| `O=C(NCCc1nnc2n1CCCCC2)N1CCC2(CCCC2)CC1` | -2.328% | 6.441% | 2.809% |
| `c1ccc2sc(N3CCCN(c4ncnc5c4CCNC5)CC3)nc2c1` | -0.7224% | 45.8% | 18.18% |
| `CN(C)C(=O)CC1CC2(CCN(c3ncccn3)CC2)c2ccccc21` (stereo not drawn) | -0.1876% | - | -0.5348% |
| `Cc1ccnc(NC(=O)C(C)Cn2cncn2)c1` (stereo not drawn) | 0.8542% | 35.22% | 0.4292% |
| `COc1ncccc1CNCc1c(C)nn(C)c1N(C)C` | 14.06% | -7.107% | 3.152% |
| `[H][C@]12CC[C@](O)(c3ccc(C)cc3)[C@@]1([H])CN(S(=O)(=O)c1cn(C)nc1C)C2` | - | -12.11% & -4.866% | - |
| `Cc1cnn(CCNCC(=O)Nc2ccc(Br)cn2)c1` | -0.2075% | 7.629% | 3.614% |
| `Cc1cnc(C(=O)N2CCCC(c3c(C)c(=O)nc4n3CCC4)C2)cn1.Cl` (stereo not drawn) | - | -20.1% | - |
| `CC(=O)N1CCCC1CCc1ccnc(-c2cncnc2)c1` (stereo not drawn) | -2.023% | -37.91% | 0.565% |
| `Cn1cc(CN2CCCn3cnc(COCC4CC4)c3C2)cn1` | -1.154% | 23.99% | -0.5405% |
| `NS(=O)(=O)c1cnn(CC(=O)Nc2c(Cl)cccc2Cl)c1` | 3.259% | 14.81% | 13.33% |
| `O=C(NCc1nnc2n1CCC2)c1cn(-c2ccccc2)nn1` | 0.6101% | 23.37% | 3.004% |
| `CC(C)(C)NC(=O)CNc1ncc(Br)cn1` | 2.585% | 15.04% | 0.8929% |
| `[H][C@@]12CCCO[C@]1([H])[C@H](OCC1CC1)CN2Cc1scnc1C` | - | -0.2203% | - |
| `O=C(NCc1ccccn1)c1cncc(C2CCCN2)n1` (stereo not drawn) | 13.97% | -7.082% | 2.632% |

Some entries from above, unchanged:

{"compound": "CCN(CC)C(=O)c1cc(C2CCCN2C)ccn1.O=CO", "stereo": "stereo not drawn", "B": 0.3047}
{"compound": "O=C(c1cscn1)N1CC[C@@H]2[C@@H]1CCN2C1CCOC1", "stereo": "stereo partly drawn", "C": 7.778}
{"compound": "CN(Cc1cnn(C)c1)C(=O)NCC1CCS(=O)(=O)C1", "stereo": "stereo not drawn", "A": 3.819, "B": 20.25, "C": 4.018}
{"compound": "Cc1ccc(S(=O)(=O)N(CCO)C2CC2)cc1N(C)C", "A": 5.624, "B": -23.52, "C": -1.657}
{"compound": "c1ccc2sc(N3CCCN(c4ncnc5c4CCNC5)CC3)nc2c1", "A": -0.7224, "B": 45.8, "C": 18.18}
{"compound": "CCN1CCC(N[C@@H]2CC[C@@H]2NC(=O)Cc2csc(C)n2)CC1", "A": 1.817, "B": 25.21, "C": 3.59}

Measurements from “University of Dundee, Small-Polar-MMV Screening Library” (2021), ChEMBL document CHEMBL3988442.